Reference: PMC7564595
Results are given in words; binding and its absence hold for the method and conditions named. Binding seen in cells or lysates may run through a third protein. A yes stands for co-enrichment or nearness to the bait. Other partners may have been found. Sequences can lack the tags named with a protein.

The chains behind the UniProt entries cited, without tags or fusion partners. Where a name states a change or a piece, a line headed by the entry shows the natural chain unless it says otherwise. Residues count along the entry.
UniProt P25705, residues 44-553: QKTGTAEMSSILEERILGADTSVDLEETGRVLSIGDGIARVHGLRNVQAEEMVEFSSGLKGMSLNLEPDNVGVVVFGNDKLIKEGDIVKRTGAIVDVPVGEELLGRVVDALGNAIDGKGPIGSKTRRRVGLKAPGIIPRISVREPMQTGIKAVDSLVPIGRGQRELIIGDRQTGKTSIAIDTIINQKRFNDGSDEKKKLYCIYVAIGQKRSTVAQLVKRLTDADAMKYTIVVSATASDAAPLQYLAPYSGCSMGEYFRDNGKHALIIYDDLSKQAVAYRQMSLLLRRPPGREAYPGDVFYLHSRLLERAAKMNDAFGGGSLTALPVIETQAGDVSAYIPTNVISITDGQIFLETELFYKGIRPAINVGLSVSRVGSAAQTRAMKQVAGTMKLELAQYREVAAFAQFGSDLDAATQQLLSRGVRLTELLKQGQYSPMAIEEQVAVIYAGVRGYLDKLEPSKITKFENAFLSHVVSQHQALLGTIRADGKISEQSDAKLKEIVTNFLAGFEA
UniProt P14735: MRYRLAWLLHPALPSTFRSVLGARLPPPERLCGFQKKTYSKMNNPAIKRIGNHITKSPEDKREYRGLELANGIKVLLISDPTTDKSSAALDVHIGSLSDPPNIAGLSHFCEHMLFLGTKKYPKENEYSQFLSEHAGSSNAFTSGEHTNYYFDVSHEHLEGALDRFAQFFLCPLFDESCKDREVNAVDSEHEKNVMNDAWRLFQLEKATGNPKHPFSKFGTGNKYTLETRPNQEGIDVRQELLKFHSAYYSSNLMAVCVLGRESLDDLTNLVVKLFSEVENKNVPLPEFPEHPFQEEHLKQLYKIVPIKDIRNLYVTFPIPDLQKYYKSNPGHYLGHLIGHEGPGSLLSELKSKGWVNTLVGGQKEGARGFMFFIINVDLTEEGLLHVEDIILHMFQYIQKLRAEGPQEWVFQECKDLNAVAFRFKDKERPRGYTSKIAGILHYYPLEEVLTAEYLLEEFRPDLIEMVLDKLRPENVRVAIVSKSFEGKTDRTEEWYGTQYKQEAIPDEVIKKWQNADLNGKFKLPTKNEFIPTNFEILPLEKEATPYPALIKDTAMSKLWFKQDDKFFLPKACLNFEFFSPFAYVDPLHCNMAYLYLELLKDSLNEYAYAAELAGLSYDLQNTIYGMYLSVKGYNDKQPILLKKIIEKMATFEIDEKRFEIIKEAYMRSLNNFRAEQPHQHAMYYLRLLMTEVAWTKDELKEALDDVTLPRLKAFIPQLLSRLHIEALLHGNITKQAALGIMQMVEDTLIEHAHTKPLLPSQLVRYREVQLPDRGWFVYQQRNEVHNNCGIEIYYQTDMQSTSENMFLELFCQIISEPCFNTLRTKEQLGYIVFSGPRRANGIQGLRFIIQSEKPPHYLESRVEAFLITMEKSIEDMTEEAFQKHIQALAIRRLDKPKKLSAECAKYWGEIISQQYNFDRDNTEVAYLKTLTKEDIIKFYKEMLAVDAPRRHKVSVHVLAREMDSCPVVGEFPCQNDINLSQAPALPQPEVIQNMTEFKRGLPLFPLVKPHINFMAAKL
UniProt Q9BSJ2: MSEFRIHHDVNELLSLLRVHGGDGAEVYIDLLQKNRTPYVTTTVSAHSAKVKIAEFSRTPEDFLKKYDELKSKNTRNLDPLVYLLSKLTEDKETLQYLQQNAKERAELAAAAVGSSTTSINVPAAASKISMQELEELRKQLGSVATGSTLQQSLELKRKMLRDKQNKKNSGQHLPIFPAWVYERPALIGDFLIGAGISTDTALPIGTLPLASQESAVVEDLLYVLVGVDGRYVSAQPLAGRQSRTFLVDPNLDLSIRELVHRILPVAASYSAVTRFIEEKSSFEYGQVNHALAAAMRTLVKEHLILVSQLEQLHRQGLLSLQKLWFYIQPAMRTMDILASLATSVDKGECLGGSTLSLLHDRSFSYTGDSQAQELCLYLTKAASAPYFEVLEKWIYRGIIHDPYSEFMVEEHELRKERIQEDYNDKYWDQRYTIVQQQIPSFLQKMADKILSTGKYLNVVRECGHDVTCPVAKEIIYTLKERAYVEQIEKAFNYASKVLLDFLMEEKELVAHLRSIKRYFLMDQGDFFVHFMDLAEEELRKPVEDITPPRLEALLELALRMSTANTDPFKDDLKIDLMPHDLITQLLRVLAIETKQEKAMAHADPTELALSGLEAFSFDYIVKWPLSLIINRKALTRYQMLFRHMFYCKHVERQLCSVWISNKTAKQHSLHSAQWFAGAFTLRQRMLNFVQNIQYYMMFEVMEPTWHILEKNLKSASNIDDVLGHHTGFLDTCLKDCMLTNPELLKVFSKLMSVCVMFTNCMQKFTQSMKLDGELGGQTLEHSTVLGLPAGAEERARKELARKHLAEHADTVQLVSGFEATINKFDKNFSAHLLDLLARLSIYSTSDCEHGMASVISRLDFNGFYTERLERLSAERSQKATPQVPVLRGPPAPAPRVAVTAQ
UniProt Q96CW5: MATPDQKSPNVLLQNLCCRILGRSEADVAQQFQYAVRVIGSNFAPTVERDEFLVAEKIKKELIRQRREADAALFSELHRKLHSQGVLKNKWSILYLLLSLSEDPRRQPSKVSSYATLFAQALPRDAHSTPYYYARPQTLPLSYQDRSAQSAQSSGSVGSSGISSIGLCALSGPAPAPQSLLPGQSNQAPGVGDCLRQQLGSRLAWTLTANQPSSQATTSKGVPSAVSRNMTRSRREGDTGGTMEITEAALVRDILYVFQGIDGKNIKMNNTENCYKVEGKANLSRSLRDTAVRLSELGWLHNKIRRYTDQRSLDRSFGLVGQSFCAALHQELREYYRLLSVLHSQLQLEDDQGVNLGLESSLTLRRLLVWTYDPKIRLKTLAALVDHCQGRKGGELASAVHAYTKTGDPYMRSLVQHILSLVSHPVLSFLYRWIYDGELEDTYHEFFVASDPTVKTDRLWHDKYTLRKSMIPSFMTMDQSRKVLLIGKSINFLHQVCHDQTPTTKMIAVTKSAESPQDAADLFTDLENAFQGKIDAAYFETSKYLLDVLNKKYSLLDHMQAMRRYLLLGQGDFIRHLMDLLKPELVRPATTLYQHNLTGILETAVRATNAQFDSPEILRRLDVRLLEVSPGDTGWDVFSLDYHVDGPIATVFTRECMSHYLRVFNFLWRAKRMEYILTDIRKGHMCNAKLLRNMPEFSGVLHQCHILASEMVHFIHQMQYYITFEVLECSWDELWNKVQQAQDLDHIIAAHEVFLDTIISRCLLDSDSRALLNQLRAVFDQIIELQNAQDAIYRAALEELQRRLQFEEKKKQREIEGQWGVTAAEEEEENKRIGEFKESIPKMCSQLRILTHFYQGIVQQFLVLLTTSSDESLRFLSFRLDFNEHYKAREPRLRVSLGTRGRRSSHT
UniProt Q9UBN7: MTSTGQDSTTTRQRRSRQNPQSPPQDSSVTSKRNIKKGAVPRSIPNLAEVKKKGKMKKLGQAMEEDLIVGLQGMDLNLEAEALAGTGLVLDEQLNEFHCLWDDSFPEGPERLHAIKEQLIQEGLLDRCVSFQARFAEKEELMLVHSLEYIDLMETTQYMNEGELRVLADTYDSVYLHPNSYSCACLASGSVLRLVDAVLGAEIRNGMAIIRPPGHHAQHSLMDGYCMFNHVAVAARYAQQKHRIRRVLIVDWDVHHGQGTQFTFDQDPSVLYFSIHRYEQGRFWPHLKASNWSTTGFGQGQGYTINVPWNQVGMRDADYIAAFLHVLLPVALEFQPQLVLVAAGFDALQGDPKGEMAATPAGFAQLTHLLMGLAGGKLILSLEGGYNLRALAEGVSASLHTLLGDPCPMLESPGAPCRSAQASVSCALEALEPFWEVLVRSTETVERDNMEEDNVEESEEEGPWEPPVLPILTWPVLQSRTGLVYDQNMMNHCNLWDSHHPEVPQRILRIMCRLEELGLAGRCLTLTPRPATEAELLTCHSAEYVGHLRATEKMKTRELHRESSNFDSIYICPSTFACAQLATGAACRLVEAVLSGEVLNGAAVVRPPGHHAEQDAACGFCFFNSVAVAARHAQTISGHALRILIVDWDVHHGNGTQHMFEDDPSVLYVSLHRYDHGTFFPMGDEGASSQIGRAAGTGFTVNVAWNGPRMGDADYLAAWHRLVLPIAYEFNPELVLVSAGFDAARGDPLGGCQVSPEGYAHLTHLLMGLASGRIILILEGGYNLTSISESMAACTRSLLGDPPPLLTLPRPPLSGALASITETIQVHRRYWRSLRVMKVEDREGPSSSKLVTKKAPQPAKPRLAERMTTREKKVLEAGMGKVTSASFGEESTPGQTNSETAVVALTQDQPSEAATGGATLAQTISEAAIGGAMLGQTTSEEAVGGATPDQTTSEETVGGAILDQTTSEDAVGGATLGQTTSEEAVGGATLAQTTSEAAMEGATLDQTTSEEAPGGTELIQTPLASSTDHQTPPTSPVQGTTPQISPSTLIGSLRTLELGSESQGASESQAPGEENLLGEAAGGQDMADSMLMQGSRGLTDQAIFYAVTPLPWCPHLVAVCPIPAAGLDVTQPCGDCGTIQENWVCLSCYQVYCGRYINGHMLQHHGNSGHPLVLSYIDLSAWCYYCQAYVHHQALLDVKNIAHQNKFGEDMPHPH
UniProt P23258: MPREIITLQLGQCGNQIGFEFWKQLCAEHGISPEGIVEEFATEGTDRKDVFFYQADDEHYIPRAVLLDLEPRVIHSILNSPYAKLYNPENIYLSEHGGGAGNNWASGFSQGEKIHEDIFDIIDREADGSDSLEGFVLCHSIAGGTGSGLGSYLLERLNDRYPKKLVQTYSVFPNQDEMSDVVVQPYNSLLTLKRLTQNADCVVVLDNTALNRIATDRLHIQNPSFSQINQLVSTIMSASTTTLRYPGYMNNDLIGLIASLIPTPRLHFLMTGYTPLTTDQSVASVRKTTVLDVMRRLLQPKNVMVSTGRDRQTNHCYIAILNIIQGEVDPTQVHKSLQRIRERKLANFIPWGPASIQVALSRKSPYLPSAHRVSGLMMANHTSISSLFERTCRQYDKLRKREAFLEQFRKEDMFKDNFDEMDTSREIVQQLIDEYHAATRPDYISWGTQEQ

Each substance was assayed against T1, SIRT4-eGFP (human) (UniProt Q9Y6E7) (assay: affinity purification with mass spectrometry; anti-eGFP nanobody co-immunoprecipitation from total cell lysates of HEK293 cells stably expressing SIRT4-eGFP or eGFP (n = 4 each), arrested in G2 by Ro3306 and released into mitosis for 45 min; mass spectrometry).
T1 sequence: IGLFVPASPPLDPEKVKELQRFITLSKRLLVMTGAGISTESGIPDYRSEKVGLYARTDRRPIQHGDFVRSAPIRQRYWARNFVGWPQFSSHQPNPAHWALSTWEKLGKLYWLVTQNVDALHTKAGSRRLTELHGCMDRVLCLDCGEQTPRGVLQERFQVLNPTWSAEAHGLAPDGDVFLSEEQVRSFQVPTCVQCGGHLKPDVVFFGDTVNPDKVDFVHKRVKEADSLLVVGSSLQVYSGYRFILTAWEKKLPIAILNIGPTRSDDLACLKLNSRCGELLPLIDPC

binding, binds:
ATP5F1A (from UniProt P25705 44-553)
IDE (from UniProt P14735 1-1019) (enzyme)
TUBGCP2 (from UniProt Q9BSJ2 1-902)
Tubulin Gamma Complex Associated Protein 3 (from UniProt Q96CW5 1-907)
histone deacetylase 6 (from UniProt Q9UBN7 1-1215) (enzyme)
α-tubulin (human (endogenous in HEK293))
β-tubulin (human (endogenous in HEK293))
γ-tubulin (from UniProt P23258)
